Data published in patent US20180066241A1, “PRO-APOPTOTIC SET AND PP2A PEPTIDES” (Universite Pierre Et Marie Curie (Paris 6), priority 2015, published 2018).
Results are given in words; binding and its absence hold for the method and conditions named. Some entries that bind do so weakly or less than the wild type.

By UniProt entry, the sequences of proteins in these tests, tags left out. Where a name states a change or a piece, a line headed by the entry shows the natural chain unless it says otherwise. Chains listed by the source or under a name are the forms on record and can include a tag or linker.
SET protein (purified recombinant) (Q01105, form named): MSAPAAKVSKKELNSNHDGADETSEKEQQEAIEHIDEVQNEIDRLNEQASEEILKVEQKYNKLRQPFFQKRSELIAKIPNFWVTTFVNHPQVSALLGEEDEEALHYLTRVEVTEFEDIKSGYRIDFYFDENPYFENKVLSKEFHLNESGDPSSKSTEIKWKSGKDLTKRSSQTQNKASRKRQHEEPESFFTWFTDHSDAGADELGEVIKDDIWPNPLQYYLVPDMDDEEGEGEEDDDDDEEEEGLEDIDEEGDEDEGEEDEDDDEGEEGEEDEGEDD

Biological target: T1, PP2Ac sequence bound by SET, … (SEQ ID NO: 1) (human)
T1 sequence (peptide): ETVTLLVALKVRYRERIT
Test: SPOT peptide array on cellulose membrane, recombinant SET probe, anti-SET antibody, ECL

- binding: binds
Substance: SET protein (purified recombinant) (from UniProt Q01105 1-277)
